Results as given in PubChem BioAssay AID493215 (National Center for Advancing Translational Sciences (NCATS), 2011).
Inconclusive results, whose numbers are uncertain, are shown with a selection of clear calls. A potency beside an inconclusive call is a rough fit, not a confirmed value. The source made the active and inactive calls. The call rests on the fitted dose curve; in most records, active means well fitted inhibition curve with a large enough effect; inconclusive means small, poorly fitted or top-dose-only effect; inactive means flat fitted curve, though single readings scatter.

Protein sequences, listed by entry. Tags and fused reporters are not part of them. Residues count along the entry.
UniProt P25779, 123-467 limits assumed: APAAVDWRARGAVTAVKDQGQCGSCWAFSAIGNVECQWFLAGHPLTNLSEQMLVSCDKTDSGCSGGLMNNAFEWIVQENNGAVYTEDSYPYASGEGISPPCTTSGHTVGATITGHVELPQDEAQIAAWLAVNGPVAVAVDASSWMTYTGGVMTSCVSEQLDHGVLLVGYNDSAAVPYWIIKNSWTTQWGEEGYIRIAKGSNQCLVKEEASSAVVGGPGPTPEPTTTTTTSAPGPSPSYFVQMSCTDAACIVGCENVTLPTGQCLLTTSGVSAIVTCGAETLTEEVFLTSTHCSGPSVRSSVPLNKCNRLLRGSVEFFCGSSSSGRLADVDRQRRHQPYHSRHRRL

Biological target: Cruzipain (Trypanosoma cruzi) (UniProt P25779)
Assay: Inhibitors of Cruzain: Benzimidazole Series - Round 1
Details: purified cruzain, Z-FR-AMC fluorogenic cleavage; series mostly up to 57.1 µM; activity change, negative = inhibition: at the top concentration
Method: Cruzain is a cysteine protease from the tropical parasite Trypanosoma cruzi. This assay protocol is for an initial exploratory first round of benzimidazole-based inhibitors. Cruzain was assayed by the use of fluorogenic coumarin-based substrate Z-FR-AMC: proteolytic cleavage releases AMC, whose fluorescence is measured at 360 nm excitation and 450 nm emission. Purified cruzain was supplied by the labs of Prof. James McKerrow and Brian Shoichet, UC San Francisco. This assay had 0.01% Triton X-100 concentration.
See following references for additional details:
Assay Provider: Shoichet, Brian; University of California, San Fancisco
Screening Center PI: Austin, C.P.
Screening Center: NIH Chemical Genomics Center [NCGC]
Buffer: 100 mM Sodium Acetate, pH 5.5, 5 mM DTT, Triton X-100 concentration: 0.01%.
Buffer in columns 3 and 4 as negative control (no enzyme).
Substrate solution: 2 uM final concentration of Z-FR-AMC (catalog number I-1160, Bachem) dispensed throughout the plate.
Enzyme: 1.5 nM Cruzain final concentration in columns 1, 2, 5-48. Column 1 is neutral (100% activity). Column 2 contained titration of covalent inhibitor K11777, starting concentration 1 mM, then 1:2 dilution in duplicate).
Three uL of enzyme or buffer were dispensed to 1536-well Greiner black solid bottom plates. Compounds and controls (23 nL) were transferred via Kalypsys PinTool. The plates were incubated for 15 min at room temperature, and then 1 uL of substrate solution was added to start the reaction. The plates were immediately transferred to and read 4 times every 30 seconds for 2 min on ViewLux High-throughput CCD imager (Perkin-Elmer) using 360 nm excitation and 450 nm emission fluorescence protocol. The fluorescence intensity difference between the third and the first time points (time lapse of 60 seconds) was used to compute reaction progress.

Structure (SMILES) | activity change, negative = inhibition | Potency
O=C(NNC(=O)c1nc2ccccc2[nH]1)OCc1ccccc1 | inactive: -7.65% | –
O=C(NCc1nnc(-c2nc3ccccc3[nH]2)o1)C1CCCCC1 | inactive: 10.7% | –
CC(C)(C)OC(=O)CC(=O)NNC(=O)c1nc2ccccc2[nH]1 | – | inconclusive: 45.7 µM [inhibitor, single point]
CC(C)(C)OC(=O)Cc1nnc(-c2nc3ccccc3[nH]2)s1 | – | inconclusive: 45.7 µM [inhibitor, single point]
CC(C)(C)OC(=O)Cc1nnc(-c2nc3ccccc3[nH]2)o1 | inactive: -0.371% | –
